From PMC10618295 come the findings set out here.

Amino acid sequences for entries named in this document (tags omitted).
UniProt Q92831: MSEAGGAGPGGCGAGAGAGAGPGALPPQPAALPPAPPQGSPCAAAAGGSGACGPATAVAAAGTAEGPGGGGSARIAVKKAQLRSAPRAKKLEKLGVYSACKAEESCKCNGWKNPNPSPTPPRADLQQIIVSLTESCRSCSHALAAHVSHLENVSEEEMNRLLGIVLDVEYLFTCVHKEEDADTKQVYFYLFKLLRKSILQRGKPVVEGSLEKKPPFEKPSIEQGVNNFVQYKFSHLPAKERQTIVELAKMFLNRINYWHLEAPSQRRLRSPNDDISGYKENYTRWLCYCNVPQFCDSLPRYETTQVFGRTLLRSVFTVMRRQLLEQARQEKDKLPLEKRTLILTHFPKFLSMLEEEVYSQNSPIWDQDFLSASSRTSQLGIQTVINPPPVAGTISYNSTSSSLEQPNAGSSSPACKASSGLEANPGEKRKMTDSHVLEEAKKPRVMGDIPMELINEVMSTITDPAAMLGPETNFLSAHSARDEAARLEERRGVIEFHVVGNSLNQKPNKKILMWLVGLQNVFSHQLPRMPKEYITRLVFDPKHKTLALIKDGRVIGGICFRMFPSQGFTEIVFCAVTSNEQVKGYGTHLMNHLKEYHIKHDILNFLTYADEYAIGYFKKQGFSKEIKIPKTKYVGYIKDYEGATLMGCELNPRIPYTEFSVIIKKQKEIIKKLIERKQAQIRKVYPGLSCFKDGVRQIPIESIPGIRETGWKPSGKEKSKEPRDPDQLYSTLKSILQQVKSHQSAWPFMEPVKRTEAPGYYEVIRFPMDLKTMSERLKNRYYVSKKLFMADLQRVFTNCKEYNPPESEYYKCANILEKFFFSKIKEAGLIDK

Results are given in words; binding and its absence hold for the method and conditions named. In cells and extracts the contact can be indirect. Binding calls can cover weak binding; strength is not graded here.

The target in the experiment is KRAS^WT (plasmid overexpressed in HEK293T cells) (UniProt P01116). Description: co-IP; HEK293T cells transfected with KRAS^WT and Flag-E.V. or Flag-p300 (other acetyltransferase candidates in Supplementary Fig. 13); lysates precipitated with IgG or anti-KRAS antibody, blotted with anti-acetyl-lysine, anti-Flag and anti-KRAS.
Turning to “Flag-p300 (from UniProt Q09472 1-2414) (enzyme)”, the binding entry is recorded as “binds”.

As to “GCN5 (from UniProt Q92830 1-837) (enzyme)”, the binding entry is reported as “no binding”.

In the case of “PCAF (from UniProt Q92831 1-832) (enzyme)”, the binding result is “no binding”.

“TIP60 (from UniProt Q92993 1-513) (enzyme)”: the binding entry was “no binding”.
